Results published in PubChem BioAssay AID2685 (National Center for Advancing Translational Sciences (NCATS), 2010).
The other results are listed elsewhere or left out. The main result of the screen is listed elsewhere. These columns were measured beside it and carry no call. The list favours compounds with an active or inconclusive main result. The note in brackets gives the kind of curve behind each potency; many fits are weak.

Test: qHTS Assay for Lipid Storage Modulators in Drosophila S3 Cells;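 on cell number change: cells counted by Cell Tracker Red CMTPX staining in the red channel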
Details: BODIPY lipid droplet fluorescence, 18-24 h; for cell number change: measured here: cell count max response, cells fed with added oleic acid
Summary of the method: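 Laser-scanning cytometry quantifies lipid droplet accumulation (500–530 nm total intensity; droplet/cell object ratio) in oleic acid-fed (400 uM added) Drosophila S3 cells treated with a concentration series. 20 uM Triacsin C defined 100% inhibition.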

[1] = measured here: cell number channel AC50, cells fed with added oleic acid
[2] = measured here: lipid fluorescence (Fed channel) AC50, cells fed with added oleic acid

Structure (SMILES)	cell number change [%]	AC50 [1]	AC50 [2]
COc1cccc(Sc2cc(N3CCOCC3)nc(-c3ccccc3)n2)c1	40	8.2 µM [rising, partial curve]	0.731 µM [rising, full curve, poor fit]
CCOc1ccc(NC(=O)c2ccc(F)c(S(=O)(=O)N3CCN(c4ccccn4)CC3)c2)cc1	-26.3		11.6 µM [falling, partial curve, poor fit]
O=C(C1CCC(CNc2nc(=S)[nH]c3ccccc23)CC1)N1CCN(c2ccccn2)CC1 (stereo unspecified)	-34.3	29.1 µM [falling, single point]	16.4 µM [falling, single point]
COc1cccc(NC(=O)CN(C)CC(=O)NCc2ccco2)c1	-7.23		0.082 µM [rising, full curve, poor fit]
O=C(O)C1NCCc2ccccc21 (stereo unspecified)	-19.6	4.61 µM [falling, partial curve, poor fit]	10.3 µM [falling, partial curve]
Cn1cnnc1SCC(=O)Nc1ccc(N2CCCCC2)cc1	38.5	29.1 µM [rising, single point]	29.1 µM [rising, single point]
CCN1CCc2c(sc(NC(=O)c3ccc(S(=O)(=O)N4CCOCC4)cc3)c2C(=O)OC)C1	-38.1	6.51 µM [falling, full curve, poor fit]	
COc1ccc(C(=O)N2CCC(C(=O)Nc3ccc4c(c3)OCO4)CC2)cc1	24		
O=C(CN1C(=O)C(=O)N(C2CCCC2)C1=O)NCCc1ccc(Cl)cc1Cl			0.164 µM [falling, full curve, poor fit]
CCCCOc1ccc(OCCCC)c2c1NC1(N2)C(=O)N(C(C)=O)c2ccccc21	115	20.6 µM [rising, partial curve]	29.1 µM [rising, single point]
COc1ccc(C(=O)NC2(C(F)(F)F)NC(=O)N(CCCc3ccccc3)C2=O)c(OC)c1OC (stereo unspecified)	-32.7	11.6 µM [falling, partial curve]	18.4 µM [falling, single point]
Nc1nc(NCCOCCO)nc(NCc2ccccc2)c1[N+](=O)[O-]	45	2.91 µM [rising, full curve]	
Cc1ccc(-c2noc(CSc3nnc(Cc4cccs4)n3-c3ccccc3)n2)cc1			0.651 µM [rising, full curve]
Cc1cc2c(=O)n(C)c(SCC(=O)c3cc4ccccc4o3)nc2s1	4.03		
Cc1ccccc1N1CCN(C(=O)C2CCC(=O)N(C3CCCC3)C2)CC1 (stereo unspecified)	-2.45		0.0517 µM [rising, full curve, poor fit]
O=C(NCc1ccccc1)c1csc2c1CCCCC2		6.51 µM [falling, single point]	
CN1CCc2c(sc3nc(SCC(=O)N4CCOCC4)nc(N)c23)C1	-1.24		

Structure (SMILES)	cell number change [%]	AC50 [1]	AC50 [2]
Cc1cc(OCC(=O)NC2CCN(Cc3ccccc3)CC2)c2c(C)c(C)c(=O)oc2c1	10.8		1.84 µM [rising, partial curve]
O=C(Nc1ccc(Br)cc1)c1cccc(N2C(=O)C3C4C=CC(C4)C3C2=O)c1 (stereo unspecified)	-25.7		16.4 µM [falling, single point]
CC1Cc2ccccc2N1C(=O)CSc1ncc(-c2ccc(F)cc2)n1C (stereo unspecified)	9.67		2.59 µM [rising, single point]
CC1(C)CC2(CC(c3ccccc3F)c3ccc(O)c(O)c3O2)NC(=S)N1 (stereo unspecified)	7.95		23.1 µM [rising, partial curve, poor fit]
S=c1nc(-c2ccccc2Br)[nH][nH]1	-31.8	0.00517 µM [falling, full curve, poor fit]	0.00461 µM [falling, full curve, poor fit]
Cc1cccc(C)c1NC(=O)C1CCN(C(=O)c2cccs2)CC1	20	0.00411 µM [rising, full curve, poor fit]	8.2 µM [rising, partial curve]
O=C(O)c1cc(S(=O)(=O)N(Cc2ccccc2)c2ccc(Cl)cc2)ccc1Cl	2.78	0.291 µM [rising, partial curve, poor fit]	6.51 µM [rising, single point]
O=C(O)c1c2c(nc3ccc(S(=O)(=O)N4CCC(C(=O)NC5CCCC5)CC4)cc13)CCCCC2	-3.31		29.1 µM [falling, single point]
CCOC(=O)c1ccc2c(c1)nc(COc1ccc(OC)cc1)n2CC	-13.4		1.16 µM [rising, full curve]
CC(C)NC(=O)c1ccc(COc2ccc(C(C)(C)C)cc2)o1	-49.1	20.6 µM [falling, single point]	20.6 µM [falling, single point]
CSCCC(NC(=O)C1CCC(C)CC1)C(=O)NCCN1CCOCC1 (stereo unspecified)	-18.8		0.146 µM [falling, full curve]
Cc1ccc(-c2nc(CS(=O)(=O)CC(=O)NCc3ccc4c(c3)OCO4)c(C)o2)cc1	1.18		
O=[N+]([O-])c1cccc(-c2ccc(/C=N/Nc3nc(N4CCCCC4)nc(N4CCCCC4)n3)o2)c1	-32.9	20.6 µM [falling, single point]	
CCc1nc2ccccc2c(C(=O)OCC(=O)NCCCN2CCCC2=O)c1C		0.00517 µM [falling, full curve, poor fit]	
Cc1cc(N2C(=O)C(O)=C(C(=O)c3ccc(C)o3)C2c2ccc(OCc3ccccc3)cc2)no1 (stereo unspecified)	71.9	16.4 µM [rising, partial curve]	18.4 µM [rising, partial curve]
CC(=O)c1sc2nc(SCC(=O)N3CCCCC3)[nH]c(=O)c2c1C	-0.0674		5.8 µM [rising, partial curve]
COc1cccc(/C=C/C(=C2/C(=O)N(c3ccccc3)N=C2C)c2ccccc2)c1OC		6.51 µM [falling, single point]	3.66 µM [falling, single point]

Individual results from above.
In AC50 [1], COc1cccc(Sc2cc(N3CCOCC3)nc(-c3ccccc3)n2)c1 has the entry 8.2 µM [rising, partial curve]
In AC50 [2], O=C(CN1C(=O)C(=O)N(C2CCCC2)C1=O)NCCc1ccc(Cl)cc1Cl has the entry 0.164 µM [falling, full curve, poor fit]
